The source of these data is article PMC5352752, “Discovery and characterization of an F420-dependent glucose-6-phosphate dehydrogenase (Rh-FGD1) from Rhodococcus jostii RHA1” (Applied Microbiology and Biotechnology, 2016).

No constants are given. Whether binding was seen depends on the method and setting. Some binding calls cover weakened binding; strength is not graded here. Sequences can lack the tags named with a protein.

The target of this assay is F420-dependent glucose-6-phosphate dehydrogenase Rh-FGD1 from Rhodococcus jostii RHA1 (Rhodococcus jostii RHA1) (UniProt Q0RVH7). The assay is described as follows: crystal structure; native Rh-FGD1 apo form, sitting-drop vapor diffusion at 20 °C, 0.16 M ammonium sulfate, 0.08 M sodium acetate pH 4.6, 20% PEG 4000, 20% glycerol; two monomers in the asymmetric unit; both purified.

B1: F420-dependent glucose-6-phosphate dehydrogenase Rh-FGD1 from Rhodococcus jostii RHA1 (enzyme, UniProt Q0RVH7 1-335, looked up)
chain: MVIKFGYKASAEQFGPRELVELGVLAEAHGMDSATVSDHFQPWRHEGGHAPFSLAWMTAVGERTSRLQLGTSVMTPTFRYNPAVVAQAFATMGCLYPGRIMLGVGTGEALNEIATGFAGEWPEFKERFARLREAVALMRELWLGDRVDFEGNYYKTVGASIYDVPEGGIPVYIAAGGPVVARYAGRSGDGFICTSGKGMELYTEKLMPAVAEGAEKADRDVAEIDKMIEIKISYDTDPELALENTRFWAPLSLTPEQKHSIDDPIEMERAADALPIEQVAKRWIVASDPDEAVAQIRPYLDAGLNHLVFHAPGHDQKRFLELFQRDLAPRLRGLA
notes: each monomer is comprised of residues 1-334; The native enzyme (tag cleaved) was used for crystallization; also called RHA1_RS43115; native Rh-FGD1; source: E. coli C41(DE3), purified (HisTrap, His-SUMO tag cleaved with SUMO protease, second HisTrap, Superdex 200); not shown: His6, N-terminal, cleaved; SUMO, N-terminal, cleaved
On to B1, for which the binding entry is recorded as “binds”.
